Measured values as given in US20100168085A1, “Dopamine and agonists and antagonists thereof for modulation of suppressive activity of CD4+CD25+ regulatory T cells” (YESA RESEARCH AND DEVELOPMENT CO. LTD. at the Weizmann …, priority 2003, published 2010).
At least one compound was matched to its structure with a doubt left.

Test system: mice, glutamate-induced retinal ganglion cell death
Assay: Intravitreal glutamate toxicity, retinal ganglion cell survival
Type: in vivo, mouse
Conditions: clozapine 5 mg/kg i.v., 7 days

## CN1CCN(C2=Nc3cc(Cl)ccc3Nc3ccccc32)CC1 [clozapine]
  Neuronal survival compared to vehicle-injected mice: significant increase in neuronal survival
